Assay [1] concerns the target T1, Mini-Ph (Drosophila melanogaster) (UniProt P39769).
T1 sequence: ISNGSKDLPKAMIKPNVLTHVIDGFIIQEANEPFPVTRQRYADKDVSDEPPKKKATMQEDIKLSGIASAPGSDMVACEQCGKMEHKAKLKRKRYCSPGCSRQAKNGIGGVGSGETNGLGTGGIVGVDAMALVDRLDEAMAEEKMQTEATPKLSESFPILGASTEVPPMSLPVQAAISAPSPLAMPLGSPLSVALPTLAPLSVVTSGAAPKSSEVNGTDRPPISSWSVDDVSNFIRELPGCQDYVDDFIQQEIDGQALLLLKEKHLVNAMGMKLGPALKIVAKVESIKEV
In words: co-sedimentation; 7.5 µM Mini-Ph with or without chromatin (80 nM nucleosomes) in 20 mM Tris pH 8.0, 50 mM NaCl, 10 min at room temperature, then S2R+ nuclear extract (still contains RNA) added; after 60 min total condensates pelleted 2 min at 2500g, 4 °C; pellets and supernatants analysed by Western blot; only the target purified. (Immunoblotting shows a protein as a band on a membrane.)

By UniProt entry, the sequences of proteins in these tests, tags left out.
UniProt P35820: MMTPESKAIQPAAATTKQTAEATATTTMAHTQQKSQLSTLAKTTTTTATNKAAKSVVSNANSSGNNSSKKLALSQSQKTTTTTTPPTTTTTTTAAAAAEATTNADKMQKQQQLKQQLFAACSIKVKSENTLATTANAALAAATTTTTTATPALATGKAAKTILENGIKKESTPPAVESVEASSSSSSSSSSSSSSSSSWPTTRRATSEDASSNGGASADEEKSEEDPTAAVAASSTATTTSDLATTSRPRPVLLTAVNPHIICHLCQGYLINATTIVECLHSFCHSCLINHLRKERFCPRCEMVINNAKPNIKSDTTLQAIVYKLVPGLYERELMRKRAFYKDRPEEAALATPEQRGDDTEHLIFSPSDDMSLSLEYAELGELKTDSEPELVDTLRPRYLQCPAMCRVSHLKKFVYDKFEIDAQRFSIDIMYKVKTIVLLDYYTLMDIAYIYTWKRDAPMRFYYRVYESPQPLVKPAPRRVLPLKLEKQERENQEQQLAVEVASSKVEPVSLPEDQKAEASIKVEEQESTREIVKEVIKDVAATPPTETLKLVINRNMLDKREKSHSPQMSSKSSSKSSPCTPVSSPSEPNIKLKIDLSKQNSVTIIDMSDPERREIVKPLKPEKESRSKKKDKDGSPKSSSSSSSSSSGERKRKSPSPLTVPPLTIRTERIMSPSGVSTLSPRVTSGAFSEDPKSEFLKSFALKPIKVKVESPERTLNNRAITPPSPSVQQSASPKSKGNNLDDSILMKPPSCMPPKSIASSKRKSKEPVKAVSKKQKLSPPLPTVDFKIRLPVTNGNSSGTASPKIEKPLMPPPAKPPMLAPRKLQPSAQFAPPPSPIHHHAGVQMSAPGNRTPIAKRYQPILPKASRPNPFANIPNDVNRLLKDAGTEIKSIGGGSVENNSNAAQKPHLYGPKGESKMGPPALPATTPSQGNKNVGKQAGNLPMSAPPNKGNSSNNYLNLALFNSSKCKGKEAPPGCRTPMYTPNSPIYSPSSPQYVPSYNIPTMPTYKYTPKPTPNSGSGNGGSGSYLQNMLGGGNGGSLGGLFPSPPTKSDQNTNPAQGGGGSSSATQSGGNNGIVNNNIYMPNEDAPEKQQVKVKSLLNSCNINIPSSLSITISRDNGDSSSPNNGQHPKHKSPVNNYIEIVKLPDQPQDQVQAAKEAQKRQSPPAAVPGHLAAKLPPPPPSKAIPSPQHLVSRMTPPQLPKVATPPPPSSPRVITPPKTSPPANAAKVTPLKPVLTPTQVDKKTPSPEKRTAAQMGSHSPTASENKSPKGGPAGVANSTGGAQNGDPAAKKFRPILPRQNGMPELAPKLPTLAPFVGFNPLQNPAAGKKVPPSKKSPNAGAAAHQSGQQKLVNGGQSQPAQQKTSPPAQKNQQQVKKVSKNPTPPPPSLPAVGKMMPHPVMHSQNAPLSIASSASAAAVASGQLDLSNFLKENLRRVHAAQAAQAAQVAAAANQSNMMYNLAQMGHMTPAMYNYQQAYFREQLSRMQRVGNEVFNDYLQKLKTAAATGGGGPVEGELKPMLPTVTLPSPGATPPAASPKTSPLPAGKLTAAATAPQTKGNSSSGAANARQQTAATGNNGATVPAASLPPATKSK
UniProt Q24572: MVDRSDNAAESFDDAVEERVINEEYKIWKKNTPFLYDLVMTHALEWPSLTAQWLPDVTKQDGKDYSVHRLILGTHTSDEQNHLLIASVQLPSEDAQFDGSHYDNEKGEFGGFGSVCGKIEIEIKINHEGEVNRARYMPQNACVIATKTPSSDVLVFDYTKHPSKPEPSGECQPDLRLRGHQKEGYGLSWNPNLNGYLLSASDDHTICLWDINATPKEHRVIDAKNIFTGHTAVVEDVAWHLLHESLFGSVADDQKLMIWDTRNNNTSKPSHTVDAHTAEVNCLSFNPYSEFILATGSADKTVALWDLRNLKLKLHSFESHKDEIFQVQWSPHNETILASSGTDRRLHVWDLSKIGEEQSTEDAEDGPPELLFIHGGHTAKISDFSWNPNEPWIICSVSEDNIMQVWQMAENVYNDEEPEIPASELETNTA

The next assay concerns the target Flag-PSC (Drosophila) (UniProt P35820). In words: co-IP; anti-FLAG beads, nuclear extracts of Sf9 cells co-infected for 3 days; wash with 2 M KCl + 1 M urea; incubation with 4 mM ATP + 4 mM MgCl2 in BC300N; eluted with 0.4 mg/ml FLAG.

These are yes or no findings as the source states them, for the method shown. In cells and extracts the contact can be indirect. Some binding calls cover weakened binding; strength is not graded here.

Regarding p55 (from UniProt Q24572 1-430), the binding result in assay [1] is “no binding”.

B1: ACF1 (protein, UniProt Q9V9T4 1-1476)
chain: MPICKREGFDLNQKEGKNETFHDNDQVFCCYITKRIFRDYEHYFRHVMVINSTVWQCEATGKENLTYEEAVKSERAARKKMEQFKQSLRAPVLLVVEHAQQSAVNTLNMIVAKFLRKRYFIGEEVSVQAKKNATYTVLGVKLDKNMPEPLNGIYEDTDNLVYRLRPNKGDPSAELDLPFRQLRRSRMEFNLENLSMFIKSNVSRVDGLLRPKPEAYKQYVTDPGVNFSTIFIGKMPRYSPAKIKKPDGKKQSTLNKYIVAGEATAAKSKAKAKSDAKSLAEELERVKREKEAKLIELEKQKAEKKAQLIERVENECNLLLQKTDDLERTDQKVLPRYRQIVTLLPEHLLGDAFMMREFMHTYTGLLSGIEVFRQNLSFYEMTRALTAREIAGPLSDILLVLLGTVFDLQKEEEEECAVTYLDRAAQTQEPYWSMAQAAKSHLYAKRHFSFKVNELPLDALTLSEVLRLHLLGSGAFVNEKAERWRVMYRNGYSSKEDPGLELRLEHSHILRILKNHSVYQLKFKDIMLLIRCLMSQIMTYSGTINLIEERMEQTAKARQDLRALVVGENKRLAAVEINRKKLTQMHHLEVNGVEPEKREALVEKLKKSIAELHAQSDQQHRKHELQMLKLHSQLFNFLVYLGMDRCYRKYYVLESMPGIFVEHSPDSLDTCLEQPITNKSQIEIRQQSALPKNRKDLRVYLLKLYGDDEKKTKKKAKHSLENKENQEHRLNGSAEPMDVESDSPEAPTHFELLMCSGDKRSCIVHDSRNGQRQRWAYIYKAEEIDELIKALNPNGLREYELLQELSVLRSLIEQHAKTCPVDLLSLENETMRKKFMAAMESETNRKYGEANFGLPNGTDLNEVMRLHLVDRIIQFENDIYTGDLGRLKVKDMEKWRSDLLGGNYDAQCKLQWGPGGKLEDEAGSDNESHETHEEDDGALLGKYARKPYRDPGMYLAASADTKPLPDSDDEEDQHTNAVSIPIAVHNMASALLQVEQAIGKRFLKEPYGMKKWDPKQEALKLACDSRLHQWEVSLMESTSFAQVFLHLNILHDCIQWRRSTNKSLCKVCRRGSDPEKMLLCDECNAGTHMFCLKPKLRSVPPGNWYCNDCVKSLGLSNGQNEKDKKQATKKKRKFIVEEEDDEATDEEEEEKKDDDMTDEDAEHENEKHDEDVEDDESVTSTPSSSRVNGRILRRPRTRPTSRRLTSKEIEEHAQEDVDSGDVSDDASLTAGEDTIEDESDEEKVCQKCFYDGGEIKCVQCRLFFHLECVHLKRPPRTDFVCKTCKPMPQRPRRRHSNMNGDHDRDEEEPKAKRPRNSLRLSIDKTARPSNGNNNNNNNNSSVNNNNHRRSGRRTNEHMPLNSAALYDLLEQIMKHKAAWPFLRPVLTSEVPDYHQIIKTPMDLAKIKSKLNMGAYQLNEELLSDIQLVFRNCDLYNVEGNEIYDAGCQLERFVIDRCRDMQLPFRPSDMNGEVKAC
With B1, the binding result in assay [1] was “no binding”.

B2: Su(Z)12 (protein, UniProt Q9NJG9 1-900)
chain: MAPAKKREKDSNPDGSAANGIIGLTHGAPDASNAGSTVPPTAEGQVKLNGHQQEQELFLQAFEKPTQIYRYLRNRHETNPIFLNRTLSYMKERMSRNNKKRISFQVNSMLESITQKSEAVSQNYLHVIYDSLHEKLPARLDNESGEDLLQEQLLCEAGESVSVETTLYKITRSKRKDSTLDFQELLSKCSQIVYNPKDRVGEHATISIPLQTMRPMGEQHTLYKLLFRIKVLSPSTCNDENAETPPNKRSRPNEKMFGSELILYEKSSGFITEGEYEAMLQPLNSTSIKSFSPKKCTWETMPDSYIPLSLTYDVYQQSPMLKFHLTLSNEQLPEMISAPELQRYVQHLDAVAEMNYNNNNYNNNNNCSGLKNGSGGGNSTVCKTTPEHIQIVYNFMYSNNTRQQTEYTQELNCPWCGLDCLRLYALLKHLKLCHARFNFTYQPAGSGARIDVTINDAYDGSYAGSPYDLAGPSGSSFARTCGPVRRTSVTSLMVCRPRRQKTCLDEFLELDEDEISNQRSYITGHNRLYHHTETCLPVHPKELDIDSEGESDPLWLRQKTIQMIDEFSDVNEGEKELMKLWNLHVMRHGFVGDCQLPIACEMFLDAKGTEIVRKNLYRNFILHMCSLFDYGLIAAETVYKTVQKLQGLLSKYAAGQELMQRQREEQLKYWLDVGMHKKQEDPKTLKSPQKPAPPADQASTSSASTSGSGSGSSSMQPPKRMPAHLKRGSAASSPGVQSKGTENGTNGSNSSSSNSKNVAKKSADQPLSTLANTRERRSEYGQKRNVSGSRLAATPASKRKLSSKDNTVLNKRQRYSDGSPGTGIGNGHGGGSGSGANRNKSNNHSLPATSNNASSSSSNSKRAIARRRSTSERTKASGSTGGGAGGVRTRLSVPAKYERR
Take B2: the binding result in assay [1] is on record as “no binding”.

B3: dRING (protein, UniProt Q9VB08 1-435)
chain: MTSLDPAPNKTWELSLYELQRKPQEVITDSTEIAVSPRSLHSELMCPICLDMLKKTMTTKECLHRFCSDCIVTALRSGNKECPTCRKKLVSKRSLRADPNFDLLISKIYPSREEYEAIQEKVMAKFNQTQSQQALVNSINEGIKLQSQNRPQRFRTKGGGGGGGGGGNGNGAANVAAPPAPGAPTAVGRNASNQMHVHDTASNDSNSNTNSIDRENRDPGHSGTSAASAITSASNAAPSSSANSGASTSATRMQVDDASNPPSVRSTPSPVPSNSSSSKPKRAMSVLTSERSEESESDSQMDCRTEGDSNIDTEGEGNGELGINDEIELVFKPHPTEMSADNQLIRALKENCVRYIKTTANATVDHLSKYLAMRLTLDLGADLPEACRVLNFCIYVAPQPQQLVILNGNQTLHQVNDKFWKVNKPMEMYYSWKKT
With B3, the binding result with Flag-PSC (Drosophila) was “binds”.

B4: Pc (protein, UniProt P26017 1-390)
chain: MTGRGKGSKGKLGRDNATDDPVDLVYAAEKIIQKRVKKGVVEYRVKWKGWNQRYNTWEPEVNILDRRLIDIYEQTNKSSGTPSKRGIKKKEKEPDPEPESEEDEYTFTENDVDTHQATTSSATHDKESKKEKKHHHHHHHHHHIKSERNSGRRSESPLTHHHHHHHHESKRQRIDHSSSSNSSFTHNSFVPEPDSNSSSSEDQPLIGTKRKAEVLKESGKIGVTIKTSPDGPTIKPQPTQQVTPSQQQPFQDQQQAEKIASEAATQLKSEQQATPLATEAINTTPAESGAEEEEVANEEGNQQAPQVPSENNNIPKPCNNLAINQKQPLTPLSPRALPPRFWLPAKCNISNRVVITDVTVNLETVTIRECKTERGFFRERDMKGDSSPVA
As to B4, in the assay with Flag-PSC (Drosophila), the binding entry was “binds”.

These data come from paper PMC7644731.
